From the supplement of paper PMC9233669
Variants at the floor of the assay are shown more often than the library holds them.

How the values were obtained:
biotinyl-Val-oxazolone = test: self-aminoacylation, catalytic enhancement (BVO) (fold over background); higher = more active; k-Seq, kA / k0A0; sequences stand for … in GGGAAUGGAUCCACAUCUACGAAUUC…UUCACUGCAGACUUGACGAAGCUG
In short: (§1)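 Catalytic enhancement equals the median kA over the uncatalyzed rate, the latter read from the low-activity peak of a bimodal Gaussian fit. Values of kA came from fitting each sequence's fraction reacted to a pseudo-first-order model, with 1000 bootstraps. Reacted RNA was captured with streptavidin and quantified by triplicate qPCR and Illumina sequencing after 90 minutes at room temperature with 2–1250 μM biotinyl-aminoacyl-oxazolone and 0.43 μM mutagenized RNA pools bearing a 21-nt variable region.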

biotinyl-Trp-oxazolone = test: self-aminoacylation, catalytic enhancement (BWO) (fold over background); higher = more active; k-Seq, kA / k0A0; sequences stand for … in GGGAAUGGAUCCACAUCUACGAAUUC…UUCACUGCAGACUUGACGAAGCUG
In short: as §1

biotinyl-Ile-oxazolone = test: self-aminoacylation, catalytic enhancement (BIO) (fold over background); higher = more active; k-Seq, kA / k0A0; sequences stand for … in GGGAAUGGAUCCACAUCUACGAAUUC…UUCACUGCAGACUUGACGAAGCUG
In short: as §1

biotinyl-Met-oxazolone = test: self-aminoacylation, catalytic enhancement (BMO) (fold over background); higher = more active; k-Seq, kA / k0A0; sequences stand for … in GGGAAUGGAUCCACAUCUACGAAUUC…UUCACUGCAGACUUGACGAAGCUG
In short: as §1

biotinyl-Leu-oxazolone = test: self-aminoacylation, catalytic enhancement (BLO) (fold over background); higher = more active; k-Seq, kA / k0A0; sequences stand for … in GGGAAUGGAUCCACAUCUACGAAUUC…UUCACUGCAGACUUGACGAAGCUG
In short: as §1

Sequence	self-aminoacylation (biotinyl-Val-oxazolone)	self-aminoacylation (biotinyl-Trp-oxazolone)	self-aminoacylation (biotinyl-Ile-oxazolone)	self-aminoacylation (biotinyl-Met-oxazolone)	self-aminoacylation (biotinyl-Leu-oxazolone)
AACUUAGCUAAUAGUCGCAAG [Fam3.1 aminoacylation ribozyme variant]	1.83	1.66	–	–	–
AAGCUUGCUAUUAGUCGCAAG [Fam3.1 aminoacylation ribozyme variant]	1.73	1.37	1.83	–	–
AAGUUUCCUAAUAGUCGCAGG [Fam3.1 aminoacylation ribozyme variant]	1.42	1.91	–	–	–
AUUCACCCAGCUCAUCGGGUG [Fam2.2 aminoacylation ribozyme variant]	–	1.96	–	–	–
AUUCACCUAGGCCAUCGGCUG [Fam2.2 aminoacylation ribozyme variant]	2.59	1.62	1.81	–	–
AUUCACCUAGGGCAUCGGGGG [Fam2.2 aminoacylation ribozyme variant]	–	1.76	–	–	–
AUUCGCCUAGGUCAUAGGGUG [Fam2.2 aminoacylation ribozyme variant]	1.87	1.72	1.58	–	–
CCAAACUUCAAGGAAUCGGUC [Fam1B.1 aminoacylation ribozyme variant]	1.33	–	1.23	1.42	1.18
CCACACUCCAAACAAUCGGUC [Fam1B.1 aminoacylation ribozyme variant]	1.31	–	0.982	0.917	1.09
CCACACUUCAACCAAUCGGUU [Fam1B.1 aminoacylation ribozyme variant]	1.64	–	1.12	1.2	1.32
CCACACUUCAAGAAAUCGGUC [Fam1B.1 aminoacylation ribozyme variant]	0.825	–	0.799	0.744	0.898
CCACACUUCAAGUAAUGGGUC [Fam1B.1 aminoacylation ribozyme variant]	0.66	–	0.868	1.04	0.803
CCACACUUCAAGUUAUCGGUC [Fam1B.1 aminoacylation ribozyme variant]	1.06	–	1.09	1.01	1.04
CCACACUUCAAUCGAUCGGUC [Fam1B.1 aminoacylation ribozyme variant]	1.14	–	1.07	0.825	0.842
CCACACUUCAUGCAAUCGGCC [Fam1B.1 aminoacylation ribozyme variant]	–	1.5	–	–	–
CCACACUUCUAGCAAUCUGUC [Fam1B.1 aminoacylation ribozyme variant]	0.502	–	0.424	0.378	0.354
CCACUCCUCAAGCAAUCGGUC [Fam1B.1 aminoacylation ribozyme variant]	1.23	–	1.07	0.986	0.845
CCACUCUUCAACCAAUCGGUC [Fam1B.1 aminoacylation ribozyme variant]	1.2	–	0.974	1.19	1.62
CCACUCUUCAAGCAAUCAGUC [Fam1B.1 aminoacylation ribozyme variant]	0.725	–	0.76	0.541	0.739
CCACUCUUCAAGGAAUCGGUC [Fam1B.1 aminoacylation ribozyme variant]	0.968	–	1.12	1.05	1.13

Sequence	self-aminoacylation (biotinyl-Val-oxazolone)	self-aminoacylation (biotinyl-Trp-oxazolone)	self-aminoacylation (biotinyl-Ile-oxazolone)	self-aminoacylation (biotinyl-Met-oxazolone)	self-aminoacylation (biotinyl-Leu-oxazolone)
CCACUCUUCGAGCAAUCGGUC [Fam1B.1 aminoacylation ribozyme variant]	1.24	–	1.19	1.03	0.964
CCACUUCAAACAAUCGCUCUG [Fam1A.1 aminoacylation ribozyme variant]	0.978	–	0.977	0.836	1
CCAGACUUCAAGAAAUCGGUC [Fam1B.1 aminoacylation ribozyme variant]	0.991	–	1.15	1.04	1.33
CCAGACUUCAAGUAAUCGGUC [Fam1B.1 aminoacylation ribozyme variant]	1.02	–	1.02	1.15	1.22
CCAUACUUCAACCAAUCGGUC [Fam1B.1 aminoacylation ribozyme variant]	1.04	–	1.1	0.989	1.3
CCCAACUUCAAGCAAUCGGUC [Fam1B.1 aminoacylation ribozyme variant]	1.74	–	1.56	1.49	2.34
CCCUACUUCAAGCAAUCGGUC [Fam1B.1 aminoacylation ribozyme variant]	1.46	–	1.49	1.45	1.76
CCGCACUCCAAGCAAUCGGUC [Fam1B.1 aminoacylation ribozyme variant]	1.7	–	1.14	0.991	0.931
CCGCACUUCAAGCAUUCGGUC [Fam1B.1 aminoacylation ribozyme variant]	2.28	–	2.17	1.85	1.62
CCUAACUUCAAGCAAUCGGUC [Fam1B.1 aminoacylation ribozyme variant]	1.01	–	1.18	1.02	1.54
CGACACUUCAAUCAAUCGGUC [Fam1B.1 aminoacylation ribozyme variant]	1.05	–	1.04	0.958	1.15
CUAAUUCAAACAAUCGGUCUG [Fam1A.1 aminoacylation ribozyme variant]	0.716	–	0.739	0.687	0.713
CUACACUUCAAGCAGUCGGUC [Fam1B.1 aminoacylation ribozyme variant]	0.758	–	0.775	0.739	0.741
CUACUUACAACAAUCGGUCUG [Fam1A.1 aminoacylation ribozyme variant]	0.749	–	0.878	0.874	0.81
CUACUUCAAACAAACGAUCUG [Fam1A.1 aminoacylation ribozyme variant]	0.779	–	0.693	0.728	0.569
CUACUUCAAACAAUCGGUCAG [Fam1A.1 aminoacylation ribozyme variant]	0.882	–	0.838	0.797	0.906
CUACUUCAAACAAUCGGUCGC [Fam1A.1 aminoacylation ribozyme variant]	1.25	–	1.2	1.75	1.84
CUACUUCAAACAAUCGGUCUC [Fam1A.1 aminoacylation ribozyme variant]	1.04	–	0.938	1.01	1.42
CUACUUCAAACAAUCGGUUUC [Fam1A.1 aminoacylation ribozyme variant]	0.923	–	0.99	0.847	0.917
CUACUUCAAAGAAGCGGUCUG [Fam1A.1 aminoacylation ribozyme variant]	0.988	–	1.09	1.01	0.82

Sequence	self-aminoacylation (biotinyl-Val-oxazolone)	self-aminoacylation (biotinyl-Trp-oxazolone)	self-aminoacylation (biotinyl-Ile-oxazolone)	self-aminoacylation (biotinyl-Met-oxazolone)	self-aminoacylation (biotinyl-Leu-oxazolone)
CUACUUCAAAGAAUUGGUCUG [Fam1A.1 aminoacylation ribozyme variant]	0.912	–	1.18	0.954	1.08
CUACUUCAAGCAAUCGGUCUC [Fam1A.1 aminoacylation ribozyme variant]	0.978	–	0.933	0.872	1.01
CUACUUCAAUAAAUCGGUCUG [Fam1A.1 aminoacylation ribozyme variant]	0.77	–	0.814	0.767	0.939
CUACUUUAAACAGUCGGUCUG [Fam1A.1 aminoacylation ribozyme variant]	0.845	–	0.837	0.765	0.812
CUAGUACAAACAAUCGGUCUG [Fam1A.1 aminoacylation ribozyme variant]	0.775	–	0.837	0.725	0.802
CUAUUUCAAUCAAUCGGUCUG [Fam1A.1 aminoacylation ribozyme variant]	0.895	–	0.83	0.897	0.903
CUCCUUCAAACAAUCGGUCAG [Fam1A.1 aminoacylation ribozyme variant]	1.02	–	0.791	0.93	1.07
CUGCACUUCAAGCAAUCGGUC [Fam1B.1 aminoacylation ribozyme variant]	1.31	–	1.29	1.65	1.94
CUGCUCCAAACAAUCGGUCUG [Fam1A.1 aminoacylation ribozyme variant]	1.15	–	1.07	1.18	1.61
CUGCUUCAAACAAUCGGUUUG [Fam1A.1 aminoacylation ribozyme variant]	2.1	–	2.07	2.38	3.93
CUUCUUCAACCAAUCGGUCUG [Fam1A.1 aminoacylation ribozyme variant]	0.708	–	0.68	0.783	0.885
GAGUUUGCUAAUAGUCGUAAG [Fam3.1 aminoacylation ribozyme variant]	1.17	–	1.4	1.4	1.28
GAGUUUUCUAAUAGUCGCAAG [Fam3.1 aminoacylation ribozyme variant]	1.36	–	1.72	1.17	1.38
GUCCUUCAAACAAUCGGUCUG [Fam1A.1 aminoacylation ribozyme variant]	1.52	–	1.31	1.35	1.49
GUUACCCUGGUCAUCGAGUAA [Fam2.1 aminoacylation ribozyme variant]	7.98	–	6.86	22.6	21.8
UAACACUUCAAGCAAUCGGUC [Fam1B.1 aminoacylation ribozyme variant]	1.43	–	1.28	1.26	1.31
UAGUUUGCUUAUAGUCGCAAG [Fam3.1 aminoacylation ribozyme variant]	1.54	–	1.53	1.84	1.59
UCACAGUUCAAGCAAUCGGUC [Fam1B.1 aminoacylation ribozyme variant]	0.999	–	1.05	1.01	1.16
UUAGUUCAAACAAUCGGUCUG [Fam1A.1 aminoacylation ribozyme variant]	1.03	–	1.21	1.04	1.12
UUAUUUCAAACAAUCGGUCUG [Fam1A.1 aminoacylation ribozyme variant]	0.944	–	0.963	0.909	0.924
